Laboratory results published in publication PMC4858568.

Amino acid sequences for entries named in this document (tags omitted).
UniProt Q9UNS1: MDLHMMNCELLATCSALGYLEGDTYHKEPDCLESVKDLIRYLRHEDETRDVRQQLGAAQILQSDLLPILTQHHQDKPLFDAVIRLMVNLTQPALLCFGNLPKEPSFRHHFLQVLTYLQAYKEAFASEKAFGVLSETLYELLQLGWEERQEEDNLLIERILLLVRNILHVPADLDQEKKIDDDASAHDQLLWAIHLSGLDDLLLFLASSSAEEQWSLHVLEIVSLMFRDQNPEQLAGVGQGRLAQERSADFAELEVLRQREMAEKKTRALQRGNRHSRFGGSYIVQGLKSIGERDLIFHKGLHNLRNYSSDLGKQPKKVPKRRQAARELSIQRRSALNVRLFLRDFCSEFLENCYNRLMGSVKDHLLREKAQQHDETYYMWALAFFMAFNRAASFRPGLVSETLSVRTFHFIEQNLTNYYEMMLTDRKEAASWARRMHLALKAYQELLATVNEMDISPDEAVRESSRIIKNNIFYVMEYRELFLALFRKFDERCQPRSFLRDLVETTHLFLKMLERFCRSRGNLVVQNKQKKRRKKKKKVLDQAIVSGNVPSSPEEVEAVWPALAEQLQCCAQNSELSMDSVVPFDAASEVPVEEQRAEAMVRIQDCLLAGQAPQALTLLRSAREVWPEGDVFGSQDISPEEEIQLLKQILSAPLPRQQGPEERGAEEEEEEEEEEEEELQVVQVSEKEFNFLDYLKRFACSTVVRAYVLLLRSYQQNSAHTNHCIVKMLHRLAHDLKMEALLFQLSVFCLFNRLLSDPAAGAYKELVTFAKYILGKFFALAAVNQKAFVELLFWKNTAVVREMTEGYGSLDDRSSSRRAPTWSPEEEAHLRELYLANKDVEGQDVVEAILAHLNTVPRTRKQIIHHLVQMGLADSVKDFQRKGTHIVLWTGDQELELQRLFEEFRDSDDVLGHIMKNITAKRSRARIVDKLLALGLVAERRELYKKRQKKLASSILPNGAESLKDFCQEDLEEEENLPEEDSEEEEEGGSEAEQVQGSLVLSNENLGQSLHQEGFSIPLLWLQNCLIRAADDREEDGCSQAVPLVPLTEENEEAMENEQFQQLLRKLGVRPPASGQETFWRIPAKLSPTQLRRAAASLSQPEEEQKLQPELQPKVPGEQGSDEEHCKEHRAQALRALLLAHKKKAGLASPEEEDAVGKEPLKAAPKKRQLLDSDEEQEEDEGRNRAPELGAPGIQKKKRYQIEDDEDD

Molecular target: T1, FLAG-C4orf27 (histone PARylation factor 1, HPF1), wild type (human) (UniProt Q9NWY4)
T1 sequence: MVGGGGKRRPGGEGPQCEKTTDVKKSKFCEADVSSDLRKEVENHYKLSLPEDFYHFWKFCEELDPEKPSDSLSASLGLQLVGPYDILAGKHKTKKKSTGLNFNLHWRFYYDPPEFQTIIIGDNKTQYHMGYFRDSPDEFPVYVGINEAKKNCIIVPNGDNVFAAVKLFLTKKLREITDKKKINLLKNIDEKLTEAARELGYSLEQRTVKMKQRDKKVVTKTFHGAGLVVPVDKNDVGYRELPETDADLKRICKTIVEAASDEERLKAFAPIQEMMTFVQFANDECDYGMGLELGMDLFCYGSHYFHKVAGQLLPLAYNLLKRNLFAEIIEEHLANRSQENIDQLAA
Test: affinity purification with mass spectrometry; FLAG-C4orf27-associated proteins, label-free quantification, n = 3 independent experiments; cells and buffers not told in the text shown

Timeless (endogenous) (from UniProt Q9UNS1 1-1208)
binding: no binding

No constants are given. Whether binding was seen depends on the method and setting. Binding seen in cells or lysates may run through a third protein. These calls come from enrichment with a bait or labelling near it, and not all partners need be listed. A no says only that the protein was not detected with the bait. Sequences can lack the tags named with a protein.
